The other results are listed elsewhere or left out.

For this assay, the target named is T1, OsSMF1 (Oryza sativa, UniProt Q6ZLB0 1-436).
T1 sequence: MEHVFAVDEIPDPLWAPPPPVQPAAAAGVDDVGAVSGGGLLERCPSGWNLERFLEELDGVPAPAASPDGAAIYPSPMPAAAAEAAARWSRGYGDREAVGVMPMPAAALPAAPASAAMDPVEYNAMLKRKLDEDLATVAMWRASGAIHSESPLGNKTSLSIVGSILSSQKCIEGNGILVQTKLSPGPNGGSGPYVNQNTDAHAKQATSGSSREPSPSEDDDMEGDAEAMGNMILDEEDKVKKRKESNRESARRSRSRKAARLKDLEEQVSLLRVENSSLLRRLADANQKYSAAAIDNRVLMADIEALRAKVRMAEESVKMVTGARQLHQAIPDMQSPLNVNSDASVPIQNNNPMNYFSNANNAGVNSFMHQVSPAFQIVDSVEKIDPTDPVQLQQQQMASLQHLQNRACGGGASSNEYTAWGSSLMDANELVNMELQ
The assay is described as follows: protein-binding microarray (RPBM); PBS, 2% BSA, 51.3 ng/ul salmon testes DNA, 50 uM zinc acetate, 200 nM TF, 25 C, 1 h; high values mean tight binding. As to conditions: protein: recombinant; tags: N-terminal polyhistidine and DsRed monomer fusion (pET32a); chain copies: 2; label: CyDye5-dUTP incorporated in the synthesized complementary strand; 3' TTTTT single-stranded linker to array surface; dsDNA, one strand shown. The essentials:
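Transcription factors, each fused N-terminally to a polyhistidine tag and DsRed, were expressed in E. coli BL21-CodonPlus and purified on Ni–NTA. A custom Agilent array was made double-stranded by primer extension with Cy5-dUTP and blocked with 2% BSA. It was incubated with 200 nM protein in PBS, 2% BSA, salmon testes DNA and 50 µM zinc acetate at 25 °C for 1 h, then washed. The binding signal is per-feature fluorescence intensity (arbitrary units) read on an Axon 4000B scanner.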
Consider “CGACATGTCGTCCCCACCGCCGCAGCGCCCGCCAGCTACGCGGAGTCACCTAGTGCAG”, for which the binding signal was 31900 fluorescence intensity (a.u.).

Regarding “TACTCCCCTCGTTCTCACGACACATCACCAATCTGTACGACGGAGTCACCTAGTGCAG”, the binding signal was 6850 fluorescence intensity (a.u.).

In the case of “CTACCCCTCCTTATCCAGTCCTCCACGTCAACAAAAGAAACGGAGTCACCTAGTGCAG”, the binding signal was 6350 fluorescence intensity (a.u.).

For the sequence “CGGTCCCCAGTCCCCACGCGGGCGCCCTCACGTGGAACGCCGGAGTCACCTAGTGCAG”, the binding signal is 4860 fluorescence intensity (a.u.).

Take “GAGCTCCATCTGCTTGCACTCGTGTGATCCTCTCCTTGGCCGGAGTCACCTAGTGCAG”: the binding signal was 3300 fluorescence intensity (a.u.).

Regarding “ATTCAACTTGTACATCTCGTAACGAACAGTAACAAACAGCCGGAGTCACCTAGTGCAG”, the binding signal is 3260 fluorescence intensity (a.u.).

Turning to “ATGCATAGCGAGAGCCAAGTGGCAATCCTCTAGTACACTCCGGAGTCACCTAGTGCAG”, the binding signal is 3450 fluorescence intensity (a.u.).

“CCGTTCGCCACGTCCATCCGTTTTCTGTGCCATAGGCAGGCGGAGTCACCTAGTGCAG”: the binding signal is 7170 fluorescence intensity (a.u.).

Take “TTGTGTGGTAACCGGGCAAGCGACGTGGACATGGAATCTGCGGAGTCACCTAGTGCAG”: the binding signal is 6390 fluorescence intensity (a.u.).

On to “TTCGGTACACATCACAGAATAATGTATACAACTAAAAGTACGGAGTCACCTAGTGCAG”, for which the binding signal is 3410 fluorescence intensity (a.u.).

Turning to “CCGACGCTGCAGGCGTCAAGGACGTGGACGCGAAGTGGATCGGAGTCACCTAGTGCAG”, the binding signal is 3680 fluorescence intensity (a.u.).

Take “AAATGGAGGTGGTATTTAATTTATAAGCTACTCCTCCGTACGGAGTCACCTAGTGCAG”: the binding signal is 16900 fluorescence intensity (a.u.).

Take “AAACGCCAAAGGATCGGTGAAAGGTTTGCCACGTCATCGACGGAGTCACCTAGTGCAG”: the binding signal is 32000 fluorescence intensity (a.u.).

Regarding “AGATAAGGATCAGCCAACTAATTTGGCCTTGACTCACGCCCGGAGTCACCTAGTGCAG”, the binding signal is 4640 fluorescence intensity (a.u.).

“GTGAAACGTGGAAAGGCTAACGGTGATTCACGCCATCCTTCGGAGTCACCTAGTGCAG”: the binding signal is 3780 fluorescence intensity (a.u.).

Regarding “TCGACTCACTCAATCCAGTCGTCACCCCAGCTCACACGCACGGAGTCACCTAGTGCAG”, the binding signal is 3650 fluorescence intensity (a.u.).

In the case of “AGATTGAAACTTATCTCCTTGTCGCCTCGTCATGGTGGGGCGGAGTCACCTAGTGCAG”, the binding signal is 5820 fluorescence intensity (a.u.).

Turning to “GTAGCCGTTGAGGCTACGAACTCCATGTGTTACGTGTAGCCGGAGTCACCTAGTGCAG”, the binding signal is 5900 fluorescence intensity (a.u.).

Consider “CTATTTGCCACCTCTATCTCCACATGTGTCTATGACATGTCGGAGTCACCTAGTGCAG”, for which the binding signal was 3730 fluorescence intensity (a.u.).

As for “ATAAATGCATTACATCACTCTTTCCTGCCTTATTAGTATGCGGAGTCACCTAGTGCAG”, the binding signal was 6050 fluorescence intensity (a.u.).

Regarding “CACTAAACGGCCAAAATCTTCCATCGTATAGTTACGTCACCGGAGTCACCTAGTGCAG”, the binding signal is 4380 fluorescence intensity (a.u.).

For “ATCTCTGGTTTCACCGGTGACGACGCGACAAGGCGGAACACGGAGTCACCTAGTGCAG”, the binding signal was 3800 fluorescence intensity (a.u.).

On to “TTGTCCATCAATGGAGATGATGATGCCATGATCAAATGATCGGAGTCACCTAGTGCAG”, for which the binding signal is 3370 fluorescence intensity (a.u.).

On to “CGCTTGCGCTGTGGTGCTGCGGCGCCGCCGTCGTGGCGTCCGGAGTCACCTAGTGCAG”, for which the binding signal is 4800 fluorescence intensity (a.u.).

For “GGTCAGACCGCACCGTGACACGTCGACTGCAACCTAGCGGCGGAGTCACCTAGTGCAG”, the binding signal was 13600 fluorescence intensity (a.u.).

“CCGCTTCTGAGCACACGCTGCACGTAATCGCGAACGCGCGCGGAGTCACCTAGTGCAG”: the binding signal was 5300 fluorescence intensity (a.u.).

Regarding “AATGTGTCCTAGCTCCCCTTGAATGGAGCACTGACGTTGCCGGAGTCACCTAGTGCAG”, the binding signal was 4250 fluorescence intensity (a.u.).

As to “CTACTGGGCCCACGCGTCGGCGACATGTGGCAGGGAGGGTCGGAGTCACCTAGTGCAG”, the binding signal was 4560 fluorescence intensity (a.u.).

In the case of “TACGCATCGGCGAGAGACGGCAATGCGTGGCAAGCTGCGACGGAGTCACCTAGTGCAG”, the binding signal was 4140 fluorescence intensity (a.u.).

For “CGACTCCAACGCGAGATCGCCACGTCGTGCCAACCAGCTCCGGAGTCACCTAGTGCAG”, the binding signal was 5980 fluorescence intensity (a.u.).

For “GTGAGAATTATTCCACATAAGAAAGTAGTAAGAAGGATGCCGGAGTCACCTAGTGCAG”, the binding signal is 26900 fluorescence intensity (a.u.).

Consider “CACCGTGGAAGGCCGGACGGTTGATGAGGTCATACGCTAACGGAGTCACCTAGTGCAG”, for which the binding signal was 3450 fluorescence intensity (a.u.).

Turning to “ATGAAATTTGGTCGGCCACTCTTTCTGCCGACCTGGCAAACGGAGTCACCTAGTGCAG”, the binding signal is 4070 fluorescence intensity (a.u.).

Take “GTGGTGTGTGCATATATATCTTCCATGTAATAAAACAAATCGGAGTCACCTAGTGCAG”: the binding signal is 21400 fluorescence intensity (a.u.).

Consider “CAATATACTAACAAATTGTGACATGTCTAAGGTTTGGCATCGGAGTCACCTAGTGCAG”, for which the binding signal is 4600 fluorescence intensity (a.u.).

“ACCGCACCTCCACATCACCACATGCCTCATCGTTGCTCCACGGAGTCACCTAGTGCAG”: the binding signal is 8700 fluorescence intensity (a.u.).

For the sequence “ATTCGGTGGGTTGAGGCAGTGATGTGGTGAGAGGAGAAAGCGGAGTCACCTAGTGCAG”, the binding signal is 3440 fluorescence intensity (a.u.).

Take “GCGCCCCAACTTCCAACTCACAGTTCCTCCTCGTCATTCACGGAGTCACCTAGTGCAG”: the binding signal was 3520 fluorescence intensity (a.u.).

As to “AGCGTCACCTCAATGCCACGTGTGATAAAGACCTAGTTAACGGAGTCACCTAGTGCAG”, the binding signal was 17200 fluorescence intensity (a.u.).

For the sequence “GGATGGCCCACCACGTCAGCATCTGCACGTTTTGCTTCATCGGAGTCACCTAGTGCAG”, the binding signal was 20900 fluorescence intensity (a.u.).

As to “AACCACTGTAGAATTACACACAAGCAGTGCCAAGGGCCCACGGAGTCACCTAGTGCAG”, the binding signal was 3480 fluorescence intensity (a.u.).

Take “TGTCATGTTTATTATCTTAATTTTCTGGATTAAAATATACCGGAGTCACCTAGTGCAG”: the binding signal is 21800 fluorescence intensity (a.u.).

The record behind these values is publication PMC7819943, “Rice protein-binding microarrays: a tool to detect cis-acting elements near promoter regions in rice”.
